The values below come from the supplement of paper PMC11150407.

For orientation: cell viability means a read-out of living cells in per cent, often relative to untreated cells.

In all, about 3,000 compounds went through this assay and about 45 (2%) showed an effect of 50% or more. Some of the results follow.

The subject of the experiment is MOLM1 and UCSD/AML1 (averaged). Nature of the experiment: cell viability relative to DMSO control (POC); higher = less growth inhibition. Conditions: 1 µM; 72 h. On the procedure:
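Primary viability screen in the 3q26 EVI1-high AML cell lines MOLM1 and UCSD/AML1, compounds at 1 uM for 72 h. ATP CellTiter-Glo read-out given as percent viable over DMSO control (POC), averaged over duplicates. This mapping covers the TimTec NDL-3000 natural derivative library, whose compounds are identified by TimTec catalogue codes (ST...).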
`CCOc1ccc(C(=O)Nc2c(C)nc3nc[nH]n3c2=O)cc1OCC`: the cell viability came out at 86.1%.
As for `COc1ccc(C(=O)NCc2ccc(C)cc2)cc1OC`, the cell viability amounted to 93.3%.
For `CCOC(=O)CNC(=O)c1cccc(C)c1` the value was 100%; for `CCCCOC(=O)NC1OC(COC(C)=O)C(OC(C)=O)C(OC(C)=O)C1OC(C)=O` (centres undefined), 98.1%; for `O=c1c(-c2ccc(O)cc2)coc2c(C3OC(CO)C(O)C(O)C3O)c(O)ccc12` (centres undefined), 96.8%.
As for `COc1ccc(/C=C2\C(=O)Nc3cc(OC)c(OC)cc32)cc1O`, the cell viability is 71.7%.
As for `C=CCNC(=O)Cc1c(C)n(C(=O)c2ccc(Cl)cc2)c2ccc(OC)cc12`, the cell viability turned out to be 101%.
As to `COc1ccc(OC)c(C2Nc3ccccc3NC3=C2C(=O)CC(c2ccc(Cl)cc2)C3)c1` (centres undefined), the cell viability is 104%.
With `COc1ccc(C(=O)Nc2nc3ccccc3s2)cc1OC`, the cell viability was determined as 89.8%.
As to `Cc1ccc(-n2c(SCC(=O)Nc3ccccc3C)nc3c(=O)[nH]cnc32)cc1`, the cell viability was 102%.
As for `Cc1c(Cl)cccc1NC(=O)CSc1nc2ccccc2c(=O)[nH]1`, the figure is 99.2%.
As for `CC(=O)NCC(=O)N(CCc1c[nH]c2ccccc12)C1(C(=O)Nc2c(C)cccc2C)CCCCC1`, the figure is 103%.
On to `COc1cc(N(C(C)=O)C2OC(COC(C)=O)C(OC(C)=O)C(OC(C)=O)C2OC(C)=O)c(OC)c2c(C)cc(C)nc12` (centres undefined), for which the cell viability stood at 98.5%.
`O=C(O)/C=C/c1ccc([N+](=O)[O-])cc1`: the cell viability was 109%.
For the molecule `Cn1c(SCC(=O)Nc2ccc(Br)cc2F)nc2c(=O)[nH]cnc21`, the cell viability was 109%.
As for `COc1cc(C2=NOC(=O)/C2=C\c2cccc([N+](=O)[O-])c2)cc(OC)c1OC`, the cell viability was 98.7%.
As to `CCOc1ccc(O)c(C(=O)CC2OC(=O)c3c2ccc(OC)c3OC)c1` (centres undefined), the cell viability came to 93.8%.
Take `Cc1ccc(S(=O)(=O)NCC2c3ccccc3CCN2S(=O)(=O)c2ccc(C)cc2)cc1` (centres undefined): the cell viability amounted to 104%.
As for `Cc1ccc(NC(=O)Cc2c(Sc3ccccc3)c3ccccc3n2C)cc1`, the figure is 87.6%; as for `Cc1ccc2[nH]cc(CCNC(=O)c3cc4nc(C5CC5)cc(C(F)(F)F)n4n3)c2c1`, 97.4%; as for `COc1ccc(C(=O)Nc2ccc(OCCCOc3ccc(NC(=O)c4ccc(OC)c(OC)c4)cc3OC)c(OC)c2)cc1OC`, 110%.
As for `O=C(O)/C=C/c1ccc(Cl)cc1`, the figure is 88.1%; as for `CCCCC(=O)Nc1ccc(-c2cc3ccccc3oc2=O)c(C)c1`, 106%.
Regarding `CCOC(=O)CCc1n[nH]c(=O)[nH]c1=O`, the cell viability turned out to be 88.1%.
Turning to `O=C(Nc1cc2nn(-c3ccccc3)nc2cc1Cl)c1ccc2c(c1)OCO2`, the cell viability amounted to 102%.
Regarding `COc1ccc(OC)c(-c2oc3ccccc3c(=O)c2O)c1`, the cell viability was found to be 93.4%.
On to `CC(=O)C1=C(O)C(=O)N(CCc2c(C)[nH]c3ccccc23)C1c1cccc([N+](=O)[O-])c1` (centres undefined), for which the cell viability is 101%.
Regarding `CCCOC(=O)C1=C(C)NC2=C(C(=O)CC(C)(C)C2)C1c1ccc(OC)c(Br)c1` (centres undefined), the cell viability stood at 102%.
Take `COc1ccc(CCN(C)CCN2C(=O)c3ccccc3C2=O)cc1OC`: the cell viability was determined as 103%.
For `Cn1c(=O)c2c(ncn2CC(=O)Nc2nc3ccccc3s2)n(C)c1=O` the value was 110%.
On to `Cc1cc([N+](=O)[O-])ccc1NC(=O)c1cc2ccccc2oc1=O`, for which the cell viability was 102%.
Turning to `COc1ccc(-c2nc(CN3CCN(Cc4cc(=O)oc5cc(C)ccc45)CC3)c(C)o2)cc1OC`, the cell viability worked out at 95%.
For `O=C1C2OCC(O2)[C@H]2C(C(=O)C34CC5CC(CC(C5)C3)C4)N3c4ccccc4C=C[C@@H]3[C@@H]12` (some centres undefined), the cell viability is 94.8%.
On to `O=C(Cc1ccc(Cl)cc1Cl)c1ccc(O)cc1O`, for which the cell viability was 96%.
On to `O=C(Cn1c(=O)cc(C(=O)N2CCCCC2)c2ccccc21)Nc1cc(F)ccc1F`, for which the cell viability stood at 99.3%.
`O=C(O)C1CCCN1S(=O)(=O)c1ccccc1` (centres undefined): the cell viability was found to be 93.3%.
For the molecule `Cc1ccccc1NC(=O)C(Cc1c[nH]c2ccccc12)NC(=O)OC(C)(C)C` (centres undefined), the cell viability came to 92%.
For `O=C(Nc1ccc(Br)cc1)C1=Cc2ccccc2OC1`, the cell viability worked out at 97%.
For `CCOC(=O)C1Nc2c(Cl)ccc(C(=O)O)c2C2C=CCC12` (centres undefined) the value was 103%; for `O=c1oc2cc(O)ccc2cc1-c1ccc(Cl)cc1`, 96.4%; for `CC(=O)OC1CCC2(C)C(CCC3(C)C2C(=O)C=C2C4CC(C)(C(=O)Nc5ccccc5C)CCC4(C)CCC23C)C1(C)C` (centres undefined), 105%.
As to `COC(=O)c1c(NC(=O)CN2CCC3(O)CCCCC3C2c2ccc(OC)cc2)sc2c1CCCC2` (centres undefined), the cell viability was 99.9%.
As for `COc1ccc(C(=O)Nc2cc(C)cc(C)c2)cc1OC`, the figure is 87.3%; as for `CCOc1ccc2[nH]c(=O)c(Cc3ccccc3)c(O)c2c1`, 105%; as for `O=C(Nc1cccc(C(F)(F)F)c1)c1cc(=O)[nH]c2ccccc12`, 96.9%.
In the case of `COc1cc(O)c(C(=O)Cc2ccc(Cl)cc2)c(OC)c1`, the cell viability turned out to be 101%.
On to `C#CC1(OC(C)=O)CCC2C3CCc4cc(OC(C)=O)ccc4C3C(OC(C)=O)CC21C` (centres undefined), for which the cell viability turned out to be 88.5%.
As to `O=c1[nH]c2c(-c3ccccc3)cccc2c(O)c1C(c1ccc(F)cc1)c1c(O)c2ccccc2n(-c2ccccc2)c1=O` (centres undefined), the cell viability was 97.5%.
On to `CCOc1ccc2oc(=O)cc(CN3CCN(CC(=O)N4CCCCC4)CC3)c2c1`, for which the cell viability came out at 97.5%.
For `CCCCOC(=O)Cn1cnc2ccc(Br)cc2c1=O`, the cell viability stood at 95.8%.
As for `COc1cc(C2C(C#N)=C(N)Oc3n[nH]c(C)c32)cc2c1OCO2` (centres undefined), the cell viability is 104%.
Regarding `Cc1ccc(Cl)cc1NC(=O)CSc1nc2c(=O)[nH]cnc2n1C`, the cell viability was found to be 115%.
With `COc1ccc(C2c3[nH]c4ccccc4c3CCN2Cc2ccccc2Cl)cc1` (centres undefined), the cell viability was found to be 97.3%.
On to `CCOC(=O)c1c(C)n(-c2cccc(C)c2)c2ccc(OC)cc12`, for which the cell viability stood at 99.7%.
Regarding `O=C(CSc1nc2ccccc2c(=O)[nH]1)Nc1ccc2c(c1)OCCO2`, the cell viability was 101%.
Consider `Cc1cccc(NC(=O)CN2C(=O)N/C(=C\c3cc4c(cc3Cl)OCO4)C2=O)c1`, for which the cell viability stood at 88.7%.
Regarding `CCOc1ccc2oc(=O)cc(CN3CCN(CC(=O)NC4CCCCC4)CC3)c2c1`, the cell viability came to 103%.
For the molecule `CCOC(=O)c1c(NC(=O)c2cc3ccccc3oc2=O)sc2c1CCCCCCCCCC2`, the cell viability was 98.4%.
As for `CC1(C)CC(NC(=O)c2cc3cc(Br)ccc3oc2=O)CC(C)(C)N1`, the cell viability was 100%.
Turning to `COc1ccc(Nc2nc(N)c(C(=O)c3ccc4c(c3)OCCO4)s2)cc1`, the cell viability worked out at 95.6%.
Turning to `COc1cc(C(=O)/C=C2\C(=O)Nc3ccccc32)cc(OC)c1OC`, the cell viability stood at 21.6%.
For `Cc1[nH]c2ccc(OCc3ccccc3)cc2c1CCNC(=O)c1cccc(Br)c1`, the cell viability is 91.8%.
As for `N[C@@H](CSCc1ccccc1)C(=O)O`, the cell viability worked out at 99.8%.
As for `CNC(=O)c1cc(=O)n(CC(=O)Nc2ccccc2Cl)c2ccccc12`, the figure is 112%.
